PubChem BioAssay AID602196 | INSERM, 2012

- Assay: 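Genes whose knock-down alters cisplatin killing of lung cancer cells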
- Cells: human A549 lung cancer cells
- Reagents: siRNA pair against human genes
- Duration: 48 h transfection before cisplatin; time from cisplatin to read-out not stated
- Treatment: cisplatin at a dose killing half of control-siRNA cells; exact dose and duration not given
- Read-out: 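Shift in cisplatin death relative to control siRNA, from -50 (all cells die) to +50 (no cells die); siRNAs harmful on their own scored 0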
- Reading the numbers: two-siRNA summed score (-2 to +2): higher = both siRNAs protect from cisplatin killing; -2 means both sensitise; mean protection from cisplatin (shift in death) and protection from cisplatin (shift in death), siRNA C and protection from cisplatin (shift in death), siRNA D: higher = protection from cisplatin killing
- Active means: 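siRNAs harmful alone (LDH or WST-1) get 0; others get +1 for less and -1 for more cisplatin killing; genes are active when the two siRNAs give the same sign, summing to ±2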
- Meaning of the calls: active = both siRNAs shift cisplatin killing the same way; inactive = no consistent shift, or siRNA harmful alone
Here is a random part of about 23,000 deposited reagents. 455 of them (2%) count as active. 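Active includes both protection and sensitisation; some change values fall well beyond the stated -50 to +50 range.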 Entries without a mark were called inactive. The record does not give: the amount of reagent.

Gene,two-siRNA summed score (-2 to +2),mean protection from cisplatin (shift in death) (%),"protection from cisplatin (shift in death), siRNA C (%)","protection from cisplatin (shift in death), siRNA D (%)"
LOC200810,1,19.7,27.1,12.2
LOC388938,0,11.2,13.7,8.7
CYP2C8,0,-7.8,-12.7,-2.9
TVP23B,0,2.8,6.9,-1.2
LOC400957,0,6.9,3.6,10.1
TEDDM1,0,-0.2,6.7,-7.2
DVL1,0,-0.6,3.2,-4.4
DDX54,1,10.5,-1.3,22.3
LOC442251,0,4.7,6.5,2.8
LOC440008,0,20.6,9.1,32.2
CRYAA,0,9.6,15.8,3.4
SYMPK,0,8.8,6.5,11.2
SAGE1,-1,-7.3,3.8,-18.3

Part of the list above, set out differently.
| Gene | two-siRNA summed score (-2 to +2) | mean protection from cisplatin (shift in death) (%) | protection from cisplatin (shift in death), siRNA C (%) | protection from cisplatin (shift in death), siRNA D (%) |
| --- | --- | --- | --- | --- |
| LOC400957 | 0 | 6.9 | 3.6 | 10.1 |
| TEDDM1 | 0 | -0.2 | 6.7 | -7.2 |

Further reagents follow.
Gene,two-siRNA summed score (-2 to +2),mean protection from cisplatin (shift in death) (%),"protection from cisplatin (shift in death), siRNA C (%)","protection from cisplatin (shift in death), siRNA D (%)"
EXOC3L1,0,11.9,14,9.7
LOC441777,1,11.5,4.8,18.3
ARAP3,0,2.5,-5,9.9
LSM6,0,2.2,8.7,-4.3
LOC388963,0,6.7,11,2.4
IFT52,0,7.3,9.4,5.2
CCNB1,0,1.3,-2.6,5.3
LOC339583,0,-3.6,4.6,-11.8
KLHL10,0,5.6,5.1,6.1
LOC285296,1,15.2,13.5,17
